# Test results from publication doi:10.1101/2020.12.31.425005 (bioRxiv, 2020).
# No constants are given. Whether binding was seen depends on the method and setting. In cells and extracts the contact can be indirect. These calls come from enrichment with a bait or labelling near it, and not all partners need be listed. A no says only that the protein was not detected with the bait. Sequences can lack the tags named with a protein.
# B1: YhcB fused to SPA-tag, chromosomally at the C-terminus (protein, UniProt P0ADW3 1-132)
# chain: MTWEYALIGLVVGIIIGAVAMRFGNRKLRQQQALQYELEKNKAELDEYREELVSHFARSAELLDTMAHDYRQLYQHMAKSSSSLLPELSAEANPFRNRLAESEASNDQAPVQMPRDYSEGASGLLRTGAKRD
# Target: YhcB fused to SPA-tag, chromosomally at the C-terminus (E. coli) (UniProt P0ADW3)
# Assay: affinity purification with mass spectrometry
binder,measurement,value
B1,binding,no binding
